Test results reported in PubChem BioAssay AID2417 (National Center for Advancing Translational Sciences (NCATS), 2010).
In all, about 140,000 compounds went through this assay and about 4,300 (3.1%) were called active. Inconclusive means that the source gave no clear call. Such entries were picked first, then a sample of the others.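 How the source made its calls: active means readout at or below -70, meaning at least 70% loss of cells showing the perinucleolar compartment, a nuclear body marking cancer cells; inconclusive means readout between -30 and a set limit; inactive means the rest.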

Experiment: High Content Assay for Compounds that inhibit the Assembly of the Perinucleolar Compartment;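 further: plate controls were DMSO wells for no effect and camptothecin positive control wells for full effect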
Settings: PC3M PTB-GFP, PNC prevalence imaging, 16 h; at 10 µM; stronger effect = lower value
Outline: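 PC3M cells stably expressing PTB-GFP, 750–1000 cells/well, treated 16 h at 37 °C with compound (23 nl of library stock), in duplicate. After paraformaldehyde fixation and Hoechst stain, imaged at 20x; PNC prevalence scored by image analysis.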

Row | SMILES | activity change (PNC), negative = inhibition
1 | O=C(Nc1ncnc2c1CCC2)C12CC3CC(CC(C3)C1)C2 | inconclusive: -36.1%
2 | CC1CCN(CCc2nc3cc(NC(=O)NC4CCCCC4)ccc3n2C)CC1 | inconclusive: -32.1%
3 | CCCNC(=O)c1ccccc1NC(=O)Nc1ccccc1C | inconclusive: -37.5%
4 | COc1cc2c(cc1OC)C(C(=O)N1CCN(c3ccccc3)CC1)C(c1cccs1)N(C)C2=O (stereo unspecified) | inactive: 12.1%
5 | CCc1ccc(-c2cc(C(F)(F)F)n3nc(C(=O)Nc4c(C)nn(Cc5ccccc5C)c4C)cc3n2)s1 | inconclusive: -46.5%
6 | O=C(Nc1ccc(Cl)c(Cl)c1)Nc1ccc(Br)cc1F | inactive: -13.6%
7 | CC(=O)N=c1sc2c3ccccc3ccc2n1C | inconclusive: -37%
8 | COC(=O)C(C)Oc1ccc2c3c(c(=O)oc2c1)CCCCC3 (stereo unspecified) | inconclusive: -73.4%
9 | COc1ccccc1-c1cc(C(=O)NCc2ccco2)no1 | inactive: -13%
10 | CCn1c(SCC(=O)Nc2nc(C)c(C(=O)OC)s2)nnc1C(C)C | inconclusive: -64.6%
11 | O=C(CSc1nc2ccccc2c(=O)n1CCC(=O)N1CCCCC1)NCc1ccccc1 | inconclusive: -46.8%
12 | COC(=O)c1cnc2ccccc2n1 | inactive: -26.2%
13 | Cc1ccc(CNC(=O)C23CN(Cc4ccccc4)CC2C(c2cccc([N+](=O)[O-])c2)=NO3)cc1 (stereo unspecified) | inactive: 48.3%
14 | CC(C)(C)NC(=O)c1ccc2c(c1)N(CC(=O)N1CCN(c3ccc(F)cc3)CC1)C(=O)C(C)(C)O2 | inactive: -3.02%
15 | CC(=O)Nc1ccc(C(=O)OCCC(C)C)cc1 | inconclusive: -65.8%
16 | CCN(C(=O)COC(=O)c1ccccc1SCC(=O)NC1CCCCCCC1)C1CCS(=O)(=O)C1 (stereo unspecified) | active: -112%
17 | COc1ccc(/C=N/NC(=O)C(=O)NCc2cccnc2)cc1OC | inconclusive: -42.1%
18 | O=C(Nc1cc(Cl)cc(Cl)c1)c1cccc(OC(F)F)c1 | inconclusive: -32.2%
19 | OC12CCCCC1C(c1ccc3c(c1)OCO3)N(Cc1ccccc1F)CC2 (stereo unspecified) | inconclusive: -50.9%
20 | COc1ccc(NC(=O)CSc2ccccc2)cc1S(=O)(=O)N1CCCCC1 | active: -80.5%
21 | CCOC(=O)c1cn(CC(=O)Nc2cccc(Cl)c2C)nn1 | inactive: 0.569%
22 | O=C(CN1CCCCCC1)Nc1cccc2c1OCO2 | inconclusive: -76.4%
23 | CCOC(=O)c1c(NC(=O)CSc2nc3ccccc3o2)sc(C(C)=O)c1C | inactive: 71.4%

A draw from above in order of count of non-hydrogen atoms, ascending:
Row | SMILES | activity change (PNC), negative = inhibition
3 | CCCNC(=O)c1ccccc1NC(=O)Nc1ccccc1C | inconclusive: -37.5%
17 | COc1ccc(/C=N/NC(=O)C(=O)NCc2cccnc2)cc1OC | inconclusive: -42.1%
19 | OC12CCCCC1C(c1ccc3c(c1)OCO3)N(Cc1ccccc1F)CC2 (stereo unspecified) | inconclusive: -50.9%

Further entries.

Row | SMILES | activity change (PNC), negative = inhibition
24 | CCC(=O)NC(Cc1ccccc1)c1ccc2c(c1)OCCCO2 (stereo unspecified) | inconclusive: -39.3%
25 | Cc1ccc(C(=O)N2CCN(C(=O)CN3CCCC3)C2)cc1 | inconclusive: -43.8%
26 | COCCCNC(=O)c1ccccc1NS(C)(=O)=O | inactive: -17.1%
27 | c1ccc(SCc2nc3ccccc3[nH]2)cc1 | inactive: 11.8%
28 | Cc1nc(-c2ccc(NS(C)(=O)=O)cc2)cs1 | active: -80.5%
29 | O=C1CCC(=O)N1c1nc2nc(-c3ccccc3)cc(=O)n2[nH]1 | inconclusive: -62.2%
30 | CC(=O)c1cc2c(cc1NC(=O)Nc1cccc(Cl)c1)OCCO2 | inconclusive: -80%
31 | Cc1ccccc1C(=O)N/N=C/c1ccc([N+](=O)[O-])s1 | inconclusive: -68.8%
32 | CCOC(=O)C1=C(C)OC(N)=C(C#N)C1c1c(C)nn(-c2ccc(C)cc2)c1Cl (stereo unspecified) | inconclusive: -30.3%
33 | CC(=O)c1cccc(NS(=O)(=O)c2cc(OCC(N)=O)c(C)cc2Cl)c1 | inactive: 8.31%
34 | CC(=O)/C(C(=N)N1CCN(c2cccc(Cl)c2)CC1)=C(\C)O | inconclusive: -32.5%
35 | Cc1ccn2cc(CSc3ccccc3)nc2c1 | active: -112%
36 | Nc1nc(SCc2ccc([N+](=O)[O-])cc2)c2ncn(C3OC(CO)C(O)C3O)c2n1 (stereo unspecified) | inconclusive: -37.8%
37 | CC(=O)NNC(=O)CC(=O)Nc1nc(C23CC4CC(CC(C4)C2)C3)cs1 | inconclusive: -41.5%
38 | CC(=O)Oc1ccc(Oc2ccc(-c3noc(C)n3)cc2)cc1 | inactive: -12.4%
39 | COc1cccc(NC(=O)c2oc3ccccc3c2NC(=O)C(C)(C)C)c1 | inconclusive: -47.3%
40 | O=C(c1cccc2c1-c1ccccc1/C2=N/O)N1CCCCC1 | inactive: -14.1%
41 | O=C(N1CCCCC1)C1(c2ccccc2)CCOCC1 | inactive: -12%
42 | CCc1ccc(CN2CCN(C(=O)c3cccc(OC)c3OC)CC2)cc1 | active: -100%
43 | CC1(C)c2ssc(=S)c2-c2ccccc2N1C(=O)CSC1=NCCS1 | inconclusive: -31.7%
44 | CCN1/C(=C2\OC(=S)N(C)C2=O)Sc2ccccc21 | inactive: -18.8%
45 | O=[N+]([O-])c1ccccc1/C=N/Nc1nccnc1Cl | inactive: -7.45%
46 | C=CCNC(=S)N1CCN(c2cccc(C(F)(F)F)c2)CC1 | active: -113%

Row | SMILES | activity change (PNC), negative = inhibition
47 | Cc1cc(C)nc(SCC(=O)c2c(N)n(C)c(=O)n(C)c2=O)n1 | inconclusive: -46%
48 | O=C(O)c1ccc(N=NN2CCCCCC2)cc1 | inactive: 25.3%
49 | CCN(CC)CC(=O)Nc1ccc2c(c1)Nc1ccccc1CC2 | inconclusive: -31.5%
50 | CC(=O)Nc1ccc2nc(-c3ccncc3)[nH]c2c1 | inactive: -16.9%
51 | CC1(C)CC(N(Cc2cccs2)C(=O)c2ccco2)CCO1 (stereo unspecified) | inconclusive: -57.8%
52 | CN(C)c1cccc(C(=O)OCC(=O)NCC2CCCO2)c1 (stereo unspecified) | inactive: -0.114%
53 | COc1ccc(/C=N/NC(N)=S)cc1OC(=O)c1cccc2ccccc12 | inconclusive: -47.5%
54 | CCC(=O)Nc1cc2nn(-c3ccccc3)nc2cc1Cl | inconclusive: -73.8%
55 | Cc1ccc(-c2cc(C(=O)N3CCN(c4ccc(F)cc4)CC3)c3ccccc3n2)o1 | inconclusive: -53.6%
56 | Cn1nc(-c2ccc(OCC(=O)Nc3ccccc3)cc2)c2ccccc2c1=O | inconclusive: -52%
57 | Cc1ccc(OCC(=O)N/N=C/c2ccc([N+](=O)[O-])o2)cc1 | inconclusive: -71.9%
58 | O=C1CCCC(O)=C1N=Nc1ccc2ncsc2c1 | inconclusive: -61.2%
59 | O=C(NNC1=C(C(=O)C(F)(F)F)CCC1)c1cccc(Cl)c1 | inconclusive: -70.7%
60 | CCc1cc2c(NCCC(=O)O)ncnc2s1 | inconclusive: -45.1%
61 | O=C(C1CCCN(S(=O)(=O)c2cccc3nsnc23)C1)N1CCN(c2ccccn2)CC1 (stereo unspecified) | inconclusive: -60.9%
62 | CCOC(=O)c1[nH]c(=O)[nH]c1COC(=O)c1cc2ccccc2o1 | inactive: -26.5%
63 | Cc1cccc(NC(=O)c2cc(Cl)sc2Cl)c1C | inconclusive: -38.4%
64 | CCOC(=O)C1CCCN(CC(=O)Nc2c(C(=O)OC)[nH]c3ccc(Br)cc23)C1 (stereo unspecified) | inconclusive: -47.8%
65 | Cc1ccc(CNC(=O)C2CCCN(S(=O)(=O)c3cccnc3)C2)cc1 (stereo unspecified) | inconclusive: -31.8%
66 | CCn1c(C(=O)NCCCN2CCc3ccccc3C2)cc2sccc21 | inconclusive: -31.4%
67 | CCN(CC)C(=O)C1CCCN(C/C(C)=C/c2ccccc2)C1 (stereo unspecified) | inconclusive: -32.8%
68 | Cc1ccc(C)c2[nH]c(=O)c(C(c3nnnn3C(C)(C)C)N3CC=C(c4ccc(F)cc4)CC3)cc12 (stereo unspecified) | inconclusive: -56.3%
69 | Cc1ccc(S(=O)(=O)NN2C(=O)/C(=C/c3ccccn3)SC2=S)cc1 | inactive: -14.8%

Row | SMILES | activity change (PNC), negative = inhibition
70 | CC(C)NC(=O)CN(c1cccc(Br)c1)S(C)(=O)=O | inconclusive: -37.1%
71 | COC(=O)/C=C/C(=O)N1CCN(c2cccc(Cl)c2)CC1 | inconclusive: -52.2%
72 | c1ccc2c(N3CCCCCC3)nc(-c3ccncc3)nc2c1 | inactive: -20.6%
73 | O=C1c2ccccc2C(=O)C12OC(c1ccccc1)C1(C(=O)c3ccccc3C1=O)C2c1cccc([N+](=O)[O-])c1 (stereo unspecified) | active: -100%
74 | COc1cc(OC)cc(C(=O)Nc2ccc(S(=O)(=O)Nc3cc(C)nc(C)n3)cc2)c1 | inactive: 3.97%
75 | CN1C(=O)c2ccccc2C(C(=O)O)C1c1cn(C)c2ccccc12 (stereo unspecified) | inactive: 53.9%
76 | Cc1occc1C(=O)NCc1ccco1 | inactive: -23.7%
77 | COc1cc(/C=N/NC(=O)CCc2n[nH]c(=O)[nH]c2=O)ccc1O | inconclusive: -31%
78 | COc1ccc(N2CCN(C(=O)c3ccc4c(=O)n(CC5CCCO5)c(=O)[nH]c4c3)CC2)cc1 (stereo unspecified) | inconclusive: -65.9%
79 | CC(=O)Nc1ccc(SCC(=O)N(CCC#N)c2ccc(C)cc2)cc1 | inconclusive: -48.4%
80 | CCOC(=O)C1=C(C)N(c2ccc(OC)cc2)C(=O)/C1=C\c1cccs1 | inactive: 16%
81 | Cc1cc(C)nc(SCC(=O)N2CCOCC2)n1 | inconclusive: -60.3%
82 | NC(Cc1ccc(Oc2ccc(O)cc2)cc1)C(=O)O (stereo unspecified) | inconclusive: -42.1%
83 | Cn1sc(NC(=O)c2cccc(Cl)c2)nc1=O | inactive: 22.8%
84 | CCOc1ccc(/C=C2\SC(=S)N(Nc3ccccc3)C2=O)cc1OC | inactive: -18.2%
85 | Cc1c(C(=O)Nc2nc3ccccc3[nH]2)cccc1[N+](=O)[O-] | inconclusive: -39.9%
86 | COc1cccc(-n2c(CN3CCN(c4cccc(C)c4)C(C)C3)nc3ccc([N+](=O)[O-])cc3c2=O)c1 (stereo unspecified) | inconclusive: -57.8%
87 | Cc1cc2c(cc1C)-c1nnc(-c3ccc4ccccc4n3)n1C(C)(C)C2 | inconclusive: -32.5%
88 | O=C(c1ccccc1)N1CCN(Cc2ccccc2)CC1 | active: -100%
89 | O=C(Cc1nc(-c2ccc([N+](=O)[O-])cc2)cs1)Nc1ccccc1 | active: -100%
90 | CN1CC(=O)N(CCOc2ccccc2)C1=O | inconclusive: -30.4%
91 | Cc1cccc(-c2noc(-c3cc4ccccc4oc3=O)n2)c1 | active: -106%

Quoted from above, entries 5–9
Row | SMILES | activity change (PNC), negative = inhibition
5 | CCc1ccc(-c2cc(C(F)(F)F)n3nc(C(=O)Nc4c(C)nn(Cc5ccccc5C)c4C)cc3n2)s1 | inconclusive: -46.5%
6 | O=C(Nc1ccc(Cl)c(Cl)c1)Nc1ccc(Br)cc1F | inactive: -13.6%
7 | CC(=O)N=c1sc2c3ccccc3ccc2n1C | inconclusive: -37%
8 | COC(=O)C(C)Oc1ccc2c3c(c(=O)oc2c1)CCCCC3 (stereo unspecified) | inconclusive: -73.4%
9 | COc1ccccc1-c1cc(C(=O)NCc2ccco2)no1 | inactive: -13%
